# The other results are listed elsewhere or left out. The data scatter; read single values as rough.
# By UniProt entry, the sequences of proteins in these tests, tags left out. Where a name states a change or a piece, a line headed by the entry shows the natural chain unless it says otherwise.
# UniProt O75083: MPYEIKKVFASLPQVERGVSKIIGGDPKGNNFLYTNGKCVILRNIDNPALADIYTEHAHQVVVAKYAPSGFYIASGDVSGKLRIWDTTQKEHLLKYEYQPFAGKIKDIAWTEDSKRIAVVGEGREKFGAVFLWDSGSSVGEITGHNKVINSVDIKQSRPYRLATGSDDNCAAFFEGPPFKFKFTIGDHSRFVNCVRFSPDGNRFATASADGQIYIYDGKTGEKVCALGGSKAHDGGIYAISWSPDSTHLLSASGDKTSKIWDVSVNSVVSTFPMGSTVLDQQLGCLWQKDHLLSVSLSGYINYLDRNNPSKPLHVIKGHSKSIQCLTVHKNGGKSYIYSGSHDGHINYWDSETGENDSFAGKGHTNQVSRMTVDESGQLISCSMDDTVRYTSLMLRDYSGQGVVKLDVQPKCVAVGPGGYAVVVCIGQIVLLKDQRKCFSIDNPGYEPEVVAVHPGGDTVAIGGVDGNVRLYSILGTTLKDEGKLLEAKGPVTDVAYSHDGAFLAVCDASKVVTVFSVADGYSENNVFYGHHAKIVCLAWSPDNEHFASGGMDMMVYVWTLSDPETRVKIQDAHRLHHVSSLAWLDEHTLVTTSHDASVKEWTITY
# UniProt Q9Y3S1: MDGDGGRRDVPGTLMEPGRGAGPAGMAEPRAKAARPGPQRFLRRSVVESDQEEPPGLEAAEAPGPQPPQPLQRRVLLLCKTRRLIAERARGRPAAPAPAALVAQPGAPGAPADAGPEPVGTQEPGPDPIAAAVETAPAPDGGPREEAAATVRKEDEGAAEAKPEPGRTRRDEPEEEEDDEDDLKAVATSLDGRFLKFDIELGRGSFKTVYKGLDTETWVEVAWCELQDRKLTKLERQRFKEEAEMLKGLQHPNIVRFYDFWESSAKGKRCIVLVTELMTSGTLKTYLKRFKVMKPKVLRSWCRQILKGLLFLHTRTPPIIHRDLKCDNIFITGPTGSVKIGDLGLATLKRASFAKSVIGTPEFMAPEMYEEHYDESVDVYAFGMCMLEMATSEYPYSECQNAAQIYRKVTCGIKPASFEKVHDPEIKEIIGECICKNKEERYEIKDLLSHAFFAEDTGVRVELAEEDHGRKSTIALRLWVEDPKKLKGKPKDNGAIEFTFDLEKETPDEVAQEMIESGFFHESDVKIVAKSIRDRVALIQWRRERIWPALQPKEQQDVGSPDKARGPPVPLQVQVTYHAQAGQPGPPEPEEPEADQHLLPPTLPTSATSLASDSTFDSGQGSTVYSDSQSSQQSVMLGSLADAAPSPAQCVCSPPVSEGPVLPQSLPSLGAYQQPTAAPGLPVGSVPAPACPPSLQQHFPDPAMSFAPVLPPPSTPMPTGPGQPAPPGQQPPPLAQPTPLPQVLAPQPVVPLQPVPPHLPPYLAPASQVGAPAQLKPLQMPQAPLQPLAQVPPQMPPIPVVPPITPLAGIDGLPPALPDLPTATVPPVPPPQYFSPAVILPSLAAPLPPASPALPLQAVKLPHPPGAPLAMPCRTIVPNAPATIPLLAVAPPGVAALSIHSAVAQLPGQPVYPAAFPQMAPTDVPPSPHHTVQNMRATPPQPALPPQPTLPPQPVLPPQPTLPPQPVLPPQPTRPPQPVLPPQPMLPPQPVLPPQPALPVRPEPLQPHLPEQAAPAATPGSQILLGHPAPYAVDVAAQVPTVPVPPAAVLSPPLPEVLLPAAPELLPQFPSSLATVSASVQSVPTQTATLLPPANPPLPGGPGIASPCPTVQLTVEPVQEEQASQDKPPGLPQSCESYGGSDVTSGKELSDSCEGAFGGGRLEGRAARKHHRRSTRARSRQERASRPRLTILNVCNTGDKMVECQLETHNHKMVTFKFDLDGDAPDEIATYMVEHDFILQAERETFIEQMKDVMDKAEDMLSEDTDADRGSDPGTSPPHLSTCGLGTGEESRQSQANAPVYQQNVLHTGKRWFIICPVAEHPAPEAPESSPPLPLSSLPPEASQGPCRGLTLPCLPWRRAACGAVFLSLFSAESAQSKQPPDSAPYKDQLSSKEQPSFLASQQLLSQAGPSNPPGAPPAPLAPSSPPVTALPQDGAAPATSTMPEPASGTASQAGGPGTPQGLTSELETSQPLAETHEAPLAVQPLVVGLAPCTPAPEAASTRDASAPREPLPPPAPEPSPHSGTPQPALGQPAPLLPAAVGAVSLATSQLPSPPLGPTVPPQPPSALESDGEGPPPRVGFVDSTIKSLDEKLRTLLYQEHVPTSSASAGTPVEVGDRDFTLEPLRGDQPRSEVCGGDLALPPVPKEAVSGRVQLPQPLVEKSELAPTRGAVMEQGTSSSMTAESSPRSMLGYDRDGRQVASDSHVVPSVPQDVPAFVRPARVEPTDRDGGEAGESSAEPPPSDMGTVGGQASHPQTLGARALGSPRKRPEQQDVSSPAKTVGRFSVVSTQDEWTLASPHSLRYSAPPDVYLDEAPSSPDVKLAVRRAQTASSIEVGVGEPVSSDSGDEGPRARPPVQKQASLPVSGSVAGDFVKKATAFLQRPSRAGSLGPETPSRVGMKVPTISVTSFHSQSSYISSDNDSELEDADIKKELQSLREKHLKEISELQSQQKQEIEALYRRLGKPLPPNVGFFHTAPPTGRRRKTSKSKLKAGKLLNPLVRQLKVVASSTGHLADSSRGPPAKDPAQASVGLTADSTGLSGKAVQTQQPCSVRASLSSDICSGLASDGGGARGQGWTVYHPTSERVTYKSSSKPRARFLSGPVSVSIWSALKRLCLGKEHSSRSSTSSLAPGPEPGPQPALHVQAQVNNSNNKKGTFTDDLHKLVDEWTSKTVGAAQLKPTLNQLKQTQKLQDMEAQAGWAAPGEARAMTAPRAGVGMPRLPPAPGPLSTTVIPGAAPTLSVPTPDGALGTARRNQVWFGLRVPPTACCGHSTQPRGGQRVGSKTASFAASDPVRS
# UniProt Q14191: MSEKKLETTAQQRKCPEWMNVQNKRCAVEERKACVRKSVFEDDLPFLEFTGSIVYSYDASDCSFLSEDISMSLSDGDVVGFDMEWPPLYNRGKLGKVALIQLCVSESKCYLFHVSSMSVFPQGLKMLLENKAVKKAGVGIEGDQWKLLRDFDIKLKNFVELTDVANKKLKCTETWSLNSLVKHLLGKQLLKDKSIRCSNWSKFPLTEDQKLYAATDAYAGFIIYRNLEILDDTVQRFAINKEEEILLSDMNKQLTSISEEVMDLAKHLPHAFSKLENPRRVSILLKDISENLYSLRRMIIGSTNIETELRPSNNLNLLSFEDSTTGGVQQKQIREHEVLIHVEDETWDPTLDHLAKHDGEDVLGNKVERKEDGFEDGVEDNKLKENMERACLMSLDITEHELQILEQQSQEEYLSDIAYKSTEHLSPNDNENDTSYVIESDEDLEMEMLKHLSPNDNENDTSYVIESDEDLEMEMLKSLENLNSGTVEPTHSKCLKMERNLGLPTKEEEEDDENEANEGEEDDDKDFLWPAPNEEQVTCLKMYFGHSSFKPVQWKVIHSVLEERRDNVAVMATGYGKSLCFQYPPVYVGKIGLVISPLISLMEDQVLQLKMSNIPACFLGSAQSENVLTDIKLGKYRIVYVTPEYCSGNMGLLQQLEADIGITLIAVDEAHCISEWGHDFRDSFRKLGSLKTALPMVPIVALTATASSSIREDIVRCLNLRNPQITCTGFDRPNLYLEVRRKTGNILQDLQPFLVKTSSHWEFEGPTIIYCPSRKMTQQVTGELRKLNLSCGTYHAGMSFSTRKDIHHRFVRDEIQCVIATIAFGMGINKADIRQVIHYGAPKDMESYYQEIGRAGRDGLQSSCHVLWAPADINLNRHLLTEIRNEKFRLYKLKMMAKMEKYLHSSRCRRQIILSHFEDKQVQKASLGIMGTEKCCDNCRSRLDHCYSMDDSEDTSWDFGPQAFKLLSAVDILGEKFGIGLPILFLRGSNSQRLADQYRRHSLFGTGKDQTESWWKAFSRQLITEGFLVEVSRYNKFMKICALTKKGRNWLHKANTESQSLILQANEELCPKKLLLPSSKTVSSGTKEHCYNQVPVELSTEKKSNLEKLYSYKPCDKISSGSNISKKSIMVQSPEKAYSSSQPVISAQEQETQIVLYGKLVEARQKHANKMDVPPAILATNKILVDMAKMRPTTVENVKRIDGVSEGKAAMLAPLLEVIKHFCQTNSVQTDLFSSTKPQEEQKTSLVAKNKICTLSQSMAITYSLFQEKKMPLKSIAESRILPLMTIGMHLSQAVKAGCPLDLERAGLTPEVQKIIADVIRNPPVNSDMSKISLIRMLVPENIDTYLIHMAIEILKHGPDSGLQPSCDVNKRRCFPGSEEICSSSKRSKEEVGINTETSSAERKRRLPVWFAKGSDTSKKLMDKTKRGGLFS
# UniProt Q01831: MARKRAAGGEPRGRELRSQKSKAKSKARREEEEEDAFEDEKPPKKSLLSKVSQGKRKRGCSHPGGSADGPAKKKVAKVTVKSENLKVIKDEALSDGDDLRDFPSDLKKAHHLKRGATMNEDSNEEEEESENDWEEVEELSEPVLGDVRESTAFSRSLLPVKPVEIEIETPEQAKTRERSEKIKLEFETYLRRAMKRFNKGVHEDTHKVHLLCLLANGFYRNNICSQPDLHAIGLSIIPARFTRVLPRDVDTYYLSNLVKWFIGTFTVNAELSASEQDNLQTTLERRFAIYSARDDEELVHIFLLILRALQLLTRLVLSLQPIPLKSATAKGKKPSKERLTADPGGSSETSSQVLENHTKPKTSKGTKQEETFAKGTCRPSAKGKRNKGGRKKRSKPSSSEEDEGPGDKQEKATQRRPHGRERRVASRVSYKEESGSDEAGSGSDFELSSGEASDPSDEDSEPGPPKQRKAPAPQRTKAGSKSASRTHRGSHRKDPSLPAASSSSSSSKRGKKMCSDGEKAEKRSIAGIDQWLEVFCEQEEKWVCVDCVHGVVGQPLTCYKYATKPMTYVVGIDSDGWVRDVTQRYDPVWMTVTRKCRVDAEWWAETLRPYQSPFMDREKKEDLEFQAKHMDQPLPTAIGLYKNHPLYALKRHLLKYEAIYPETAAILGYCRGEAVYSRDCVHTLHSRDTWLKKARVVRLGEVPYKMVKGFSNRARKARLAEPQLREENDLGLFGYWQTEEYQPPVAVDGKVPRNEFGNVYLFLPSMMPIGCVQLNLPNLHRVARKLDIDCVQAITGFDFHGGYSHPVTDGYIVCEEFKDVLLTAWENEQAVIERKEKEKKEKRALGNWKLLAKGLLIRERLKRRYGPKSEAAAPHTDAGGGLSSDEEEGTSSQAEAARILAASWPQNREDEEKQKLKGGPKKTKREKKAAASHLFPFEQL
# UniProt Q96JG6: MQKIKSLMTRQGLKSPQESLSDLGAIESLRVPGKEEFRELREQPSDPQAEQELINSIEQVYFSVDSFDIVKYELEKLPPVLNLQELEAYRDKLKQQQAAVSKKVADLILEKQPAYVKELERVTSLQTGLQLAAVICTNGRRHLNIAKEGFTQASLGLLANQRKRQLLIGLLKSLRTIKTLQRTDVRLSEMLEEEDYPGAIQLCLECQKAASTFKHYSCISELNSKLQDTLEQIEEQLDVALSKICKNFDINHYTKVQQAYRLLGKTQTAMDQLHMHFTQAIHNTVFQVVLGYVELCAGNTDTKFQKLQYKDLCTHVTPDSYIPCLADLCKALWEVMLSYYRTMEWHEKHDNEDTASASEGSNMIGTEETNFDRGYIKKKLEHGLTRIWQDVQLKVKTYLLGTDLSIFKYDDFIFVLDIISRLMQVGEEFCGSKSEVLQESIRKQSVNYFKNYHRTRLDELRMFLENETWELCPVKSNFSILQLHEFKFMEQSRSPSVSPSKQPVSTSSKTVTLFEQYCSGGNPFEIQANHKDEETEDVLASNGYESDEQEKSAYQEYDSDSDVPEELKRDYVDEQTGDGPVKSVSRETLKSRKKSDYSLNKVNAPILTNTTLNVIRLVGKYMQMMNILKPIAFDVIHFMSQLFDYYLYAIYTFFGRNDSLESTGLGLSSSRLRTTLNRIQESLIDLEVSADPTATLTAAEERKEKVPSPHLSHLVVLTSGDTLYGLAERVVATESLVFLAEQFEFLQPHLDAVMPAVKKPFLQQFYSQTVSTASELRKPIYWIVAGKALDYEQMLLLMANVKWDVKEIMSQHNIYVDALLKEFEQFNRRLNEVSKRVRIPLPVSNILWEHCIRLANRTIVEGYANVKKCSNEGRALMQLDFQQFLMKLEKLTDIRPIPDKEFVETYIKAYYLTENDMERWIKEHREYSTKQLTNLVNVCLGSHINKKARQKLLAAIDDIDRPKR
# What was measured:
# [1] = compound: ClCC(=O)N[C@@H]1CCCc2ccccc12; test: log2 mean competition ratio of IA-DTB cysteine labelling (DMSO/compound) (log2 ratio); higher = stronger cysteine engagement by compound; conditions: treatment time: 4 h, cell line lysate: HEK293T
# Method: (§1)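 IA-DTB competitive cysteine chemoproteomics in HEK293T RIPA lysate. Lysates were treated with compound 29 or 30 at 50 or 200 µM for 4 h, then IA-DTB (500 µM, 1 h), trypsin-digested, NeutrAvidin-enriched and analysed by diaPASEF. Competition ratio = intensity DMSO / intensity compound (n=4 treated, n=64 DMSO); binding: mean log2 CR ≥ 1 and p ≤ 0.05 plus QC filters. Target is the cysteine site.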
# [2] = compound: ClCC(=O)N[C@H]1CCCc2ccccc12; test: as above; conditions: treatment time: 4 h, cell line lysate: HEK293T
# Method: as §1
target,measurement,setting,value
XPO7 C15,log2 mean competition ratio,[1]; 50 µM,-0.0316
same,log2 mean competition ratio,[1]; 200 µM,0.158
same,log2 mean competition ratio,[2]; 50 µM,-0.269
same,log2 mean competition ratio,[2]; 200 µM,0.144
WDR1 C225 (UniProt O75083),log2 mean competition ratio,[1]; 50 µM,-0.132
same,log2 mean competition ratio,[1]; 200 µM,0.0708
same,log2 mean competition ratio,[2]; 50 µM,-0.166
same,log2 mean competition ratio,[2]; 200 µM,-0.0396
WNK2 C1195 (UniProt Q9Y3S1),log2 mean competition ratio,[1]; 50 µM,0.0301
same,log2 mean competition ratio,[1]; 200 µM,-0.202
same,log2 mean competition ratio,[2]; 50 µM,0.119
same,log2 mean competition ratio,[2]; 200 µM,0.254
WASHC5 C969 (UniProt Q12768),log2 mean competition ratio,[1]; 50 µM,-0.216
same,log2 mean competition ratio,[1]; 200 µM,0.311
same,log2 mean competition ratio,[2]; 50 µM,0.402
same,log2 mean competition ratio,[2]; 200 µM,0.593
WNK2 C1635 (UniProt Q9Y3S1),log2 mean competition ratio,[1]; 50 µM,-0.228
same,log2 mean competition ratio,[1]; 200 µM,-0.177
same,log2 mean competition ratio,[2]; 50 µM,-0.0509
same,log2 mean competition ratio,[2]; 200 µM,-0.0966
XIAP C213 (UniProt P98170),log2 mean competition ratio,[1]; 50 µM,0.135
same,log2 mean competition ratio,[1]; 200 µM,0.0231
same,log2 mean competition ratio,[2]; 50 µM,-0.174
same,log2 mean competition ratio,[2]; 200 µM,0.0874
VPS53 C365 (UniProt Q5VIR6),log2 mean competition ratio,[1]; 50 µM,0.191
same,log2 mean competition ratio,[1]; 200 µM,-0.156
same,log2 mean competition ratio,[2]; 50 µM,-0.478
same,log2 mean competition ratio,[2]; 200 µM,0.0589
WRN C1070 (UniProt Q14191),log2 mean competition ratio,[1]; 50 µM,-0.427
same,log2 mean competition ratio,[1]; 200 µM,0.474
same,log2 mean competition ratio,[2]; 50 µM,-0.0738
same,log2 mean competition ratio,[2]; 200 µM,-0.199
XPO7 C43,log2 mean competition ratio,[1]; 50 µM,-0.115
same,log2 mean competition ratio,[1]; 200 µM,0.0368
same,log2 mean competition ratio,[2]; 50 µM,-0.079
same,log2 mean competition ratio,[2]; 200 µM,0.121
WAPL C685 (UniProt Q7Z5K2),log2 mean competition ratio,[1]; 50 µM,0.0125
same,log2 mean competition ratio,[1]; 200 µM,0.474
same,log2 mean competition ratio,[2]; 50 µM,-0.166
same,log2 mean competition ratio,[2]; 200 µM,-0.103
YARS1 C250,log2 mean competition ratio,[1]; 50 µM,0.223
same,log2 mean competition ratio,[1]; 200 µM,-0.0363
same,log2 mean competition ratio,[2]; 50 µM,0.0807
same,log2 mean competition ratio,[2]; 200 µM,-0.0551
XPC C514 (UniProt Q01831),log2 mean competition ratio,[1]; 50 µM,-0.408
same,log2 mean competition ratio,[1]; 200 µM,0.258
same,log2 mean competition ratio,[2]; 50 µM,-0.322
same,log2 mean competition ratio,[2]; 200 µM,0.00244
VPS50 C430 (UniProt Q96JG6),log2 mean competition ratio,[1]; 50 µM,-0.0963
same,log2 mean competition ratio,[1]; 200 µM,0.116
same,log2 mean competition ratio,[2]; 50 µM,-0.55
same,log2 mean competition ratio,[2]; 200 µM,-0.156
WDR43 C380 (UniProt Q15061),log2 mean competition ratio,[2]; 50 µM,0.178
same,log2 mean competition ratio,[2]; 200 µM,0.00926
XPO5 C1052 (UniProt Q9HAV4),log2 mean competition ratio,[1]; 50 µM,0.217
same,log2 mean competition ratio,[1]; 200 µM,-0.36
same,log2 mean competition ratio,[2]; 50 µM,0.0269
same,log2 mean competition ratio,[2]; 200 µM,0.19
WASHC4 C344 (UniProt Q2M389),log2 mean competition ratio,[2]; 50 µM,-0.324
same,log2 mean competition ratio,[2]; 200 µM,-0.0517
VPS52 C220 (UniProt Q8N1B4),log2 mean competition ratio,[2]; 50 µM,-0.0362
same,log2 mean competition ratio,[2]; 200 µM,0.223
WNK2 C2062 (UniProt Q9Y3S1),log2 mean competition ratio,[2]; 50 µM,0.277
same,log2 mean competition ratio,[2]; 200 µM,-0.0807

# Reformatted with tabs: part of the list above
target	measurement	setting	value
WNK2 C1195 (UniProt Q9Y3S1)	log2 mean competition ratio	[2]; 50 µM	0.119
same	log2 mean competition ratio	[2]; 200 µM	0.254
WASHC5 C969 (UniProt Q12768)	log2 mean competition ratio	[1]; 50 µM	-0.216
same	log2 mean competition ratio	[1]; 200 µM	0.311
same	log2 mean competition ratio	[2]; 50 µM	0.402
same	log2 mean competition ratio	[2]; 200 µM	0.593

# From the supplement of paper PMC11732987, “Enantioselective OTUD7B fragment discovery through chemoproteomics screening and high-throughput optimisation” (Communications Chemistry, 2025)
